Measurements taken from paper PMC10759229.
Where a chain is given by its changes, count along the chain named. Results are given in words; binding and its absence hold for the method and conditions named. In cells and extracts the contact can be indirect. Some results given as binding are weak or reduced against the parent protein; the word gives no strength. Where a sequence is shown, tags or fusion partners need not be part of it.

Protein sequences, listed by entry. Tags and fused reporters are not part of them. Lines headed by an entry give the natural chain unless they say otherwise; changes in a name come on top.
UniProt Q9NQU5: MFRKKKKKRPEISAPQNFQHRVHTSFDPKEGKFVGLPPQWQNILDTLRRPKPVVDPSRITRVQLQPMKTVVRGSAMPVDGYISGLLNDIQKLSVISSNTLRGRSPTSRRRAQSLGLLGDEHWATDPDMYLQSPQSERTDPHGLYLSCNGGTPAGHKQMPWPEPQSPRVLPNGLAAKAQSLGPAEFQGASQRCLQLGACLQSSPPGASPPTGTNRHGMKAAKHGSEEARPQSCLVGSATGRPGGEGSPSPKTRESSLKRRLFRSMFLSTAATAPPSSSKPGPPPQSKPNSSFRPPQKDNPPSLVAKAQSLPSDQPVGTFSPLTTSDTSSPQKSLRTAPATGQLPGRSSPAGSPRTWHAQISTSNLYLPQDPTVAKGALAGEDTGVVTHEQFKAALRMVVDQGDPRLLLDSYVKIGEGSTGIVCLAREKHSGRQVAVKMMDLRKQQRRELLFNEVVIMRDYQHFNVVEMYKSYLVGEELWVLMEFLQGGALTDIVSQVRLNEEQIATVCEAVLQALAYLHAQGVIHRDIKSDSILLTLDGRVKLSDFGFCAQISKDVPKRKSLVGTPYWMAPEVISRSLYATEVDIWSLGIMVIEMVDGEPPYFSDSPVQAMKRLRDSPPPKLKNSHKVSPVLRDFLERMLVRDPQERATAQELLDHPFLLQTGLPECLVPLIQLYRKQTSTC

Columns and labels:
[1] = molecular target: T1, 3xFlag-PPP2R2C wild-type (PP2A regulatory subunit B, gamma isoform a) (UniProt Q9Y2T4); test: co-IP; HEK293T cells co-transfected with 3xFlag-PPP2R2C and 2xMyc-PAK6; lysate incubated with anti-Flag M2 agarose or GFP-TrapA beads for 2 h or overnight at 4°C; western blot (Figures 1B and 3D)
T1 sequence: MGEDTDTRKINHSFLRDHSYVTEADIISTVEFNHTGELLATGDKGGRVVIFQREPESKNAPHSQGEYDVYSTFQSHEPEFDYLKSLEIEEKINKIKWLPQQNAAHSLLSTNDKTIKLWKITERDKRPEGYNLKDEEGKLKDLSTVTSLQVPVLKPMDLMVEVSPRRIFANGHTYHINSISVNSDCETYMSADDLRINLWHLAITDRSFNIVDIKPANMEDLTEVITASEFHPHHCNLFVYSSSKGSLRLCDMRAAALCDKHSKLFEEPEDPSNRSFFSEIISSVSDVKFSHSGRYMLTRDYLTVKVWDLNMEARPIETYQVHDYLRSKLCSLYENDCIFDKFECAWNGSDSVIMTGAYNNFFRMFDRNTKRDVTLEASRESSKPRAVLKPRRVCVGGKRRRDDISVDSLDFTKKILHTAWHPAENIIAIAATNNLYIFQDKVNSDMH

[2] = molecular target: T2, 3xFlag-PPP2R2C S381A (phosphodeficient) (UniProt Q9Y2T4); test: as above
T2 sequence: T1 sequence with S381A

binding [1] | binding [2] | Substance
binds |  | 2xMyc-PAK6 WT (p21-activated kinase 6) (from UniProt Q9NQU5 1-681) (enzyme)
binds | binds | 2xMyc-PAK6 S531N (constitutively active) (from UniProt Q9NQU5 1-681) (enzyme)
